Results from article PMC12315505.
Results are given in words; binding and its absence hold for the method and conditions named. Binding seen in cells or lysates may run through a third protein. Some entries that bind do so weakly or less than the wild type.

Protein sequences, listed by entry. Tags and fused reporters are not part of them.
UniProt Q9UPY3: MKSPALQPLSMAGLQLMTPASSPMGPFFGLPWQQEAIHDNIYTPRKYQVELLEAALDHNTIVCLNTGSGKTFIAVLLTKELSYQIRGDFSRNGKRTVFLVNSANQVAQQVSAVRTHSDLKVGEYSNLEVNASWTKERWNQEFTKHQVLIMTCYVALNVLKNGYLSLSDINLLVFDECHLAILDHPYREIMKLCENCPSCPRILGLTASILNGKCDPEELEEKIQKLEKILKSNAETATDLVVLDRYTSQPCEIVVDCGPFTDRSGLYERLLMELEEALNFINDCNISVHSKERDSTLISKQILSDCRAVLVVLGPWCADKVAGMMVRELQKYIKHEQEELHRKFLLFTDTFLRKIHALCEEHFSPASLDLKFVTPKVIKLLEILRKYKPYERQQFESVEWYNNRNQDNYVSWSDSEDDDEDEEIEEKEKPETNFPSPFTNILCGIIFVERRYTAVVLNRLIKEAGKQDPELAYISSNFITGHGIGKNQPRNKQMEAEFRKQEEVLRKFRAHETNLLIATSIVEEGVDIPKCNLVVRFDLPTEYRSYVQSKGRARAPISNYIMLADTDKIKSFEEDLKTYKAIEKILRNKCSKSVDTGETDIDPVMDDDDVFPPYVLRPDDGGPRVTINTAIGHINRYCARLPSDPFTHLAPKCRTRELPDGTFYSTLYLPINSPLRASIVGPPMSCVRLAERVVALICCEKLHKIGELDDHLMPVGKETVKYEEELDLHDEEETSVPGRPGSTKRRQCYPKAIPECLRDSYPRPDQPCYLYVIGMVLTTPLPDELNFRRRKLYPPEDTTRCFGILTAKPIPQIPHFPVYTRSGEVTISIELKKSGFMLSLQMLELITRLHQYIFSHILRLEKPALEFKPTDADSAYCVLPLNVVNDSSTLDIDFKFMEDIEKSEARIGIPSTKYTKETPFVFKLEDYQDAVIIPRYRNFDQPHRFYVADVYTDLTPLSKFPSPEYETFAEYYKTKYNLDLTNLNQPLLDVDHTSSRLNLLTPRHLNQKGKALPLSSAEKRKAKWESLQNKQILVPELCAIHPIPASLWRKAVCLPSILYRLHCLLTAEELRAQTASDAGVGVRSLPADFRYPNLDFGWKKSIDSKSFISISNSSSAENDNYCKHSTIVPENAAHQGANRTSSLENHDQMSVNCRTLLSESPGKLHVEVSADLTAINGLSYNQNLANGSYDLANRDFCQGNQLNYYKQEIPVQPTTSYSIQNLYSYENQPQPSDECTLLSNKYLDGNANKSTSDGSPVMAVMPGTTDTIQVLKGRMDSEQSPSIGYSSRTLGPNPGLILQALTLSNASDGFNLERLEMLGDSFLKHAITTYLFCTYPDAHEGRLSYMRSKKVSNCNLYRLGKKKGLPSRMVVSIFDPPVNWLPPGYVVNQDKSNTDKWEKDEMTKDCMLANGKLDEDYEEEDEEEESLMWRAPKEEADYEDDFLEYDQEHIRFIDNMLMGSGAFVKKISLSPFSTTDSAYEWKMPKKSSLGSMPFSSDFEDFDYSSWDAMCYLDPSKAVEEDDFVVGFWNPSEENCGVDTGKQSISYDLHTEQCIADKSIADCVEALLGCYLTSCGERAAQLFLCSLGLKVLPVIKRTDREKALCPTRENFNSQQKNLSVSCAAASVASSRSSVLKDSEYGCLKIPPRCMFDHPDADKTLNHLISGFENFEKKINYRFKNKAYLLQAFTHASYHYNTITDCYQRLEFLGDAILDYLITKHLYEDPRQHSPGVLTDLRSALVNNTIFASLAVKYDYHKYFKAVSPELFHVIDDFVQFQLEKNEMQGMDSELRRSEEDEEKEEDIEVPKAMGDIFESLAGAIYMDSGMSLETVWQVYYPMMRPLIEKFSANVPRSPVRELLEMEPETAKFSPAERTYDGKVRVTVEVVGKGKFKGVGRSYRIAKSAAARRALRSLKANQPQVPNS

Molecular target: Dicer (human (endogenous in MM6)) (UniProt Q9UPY3)
Assay: proximity ligation; in situ PLA (Duolink In Situ Red Starter Kit Mouse/Rabbit) in fixed, permeabilised wild-type MM6 cells differentiated with 1 ng/mL TGF-β and 50 nM calcitriol for 4 days; mouse anti-5-LO 6A12 and rabbit anti-Dicer; 5LOΔ MM6 cells as control gave no signals

binding: binds
B1: 5‐lipoxygenase (enzyme, UniProt P09917-1 1-674)
chain: MPSYTVTVATGSQWFAGTDDYIYLSLVGSAGCSEKHLLDKPFYNDFERGAVDSYDVTVDEELGEIQLVRIEKRKYWLNDDWYLKYITLKTPHGDYIEFPCYRWITGDVEVVLRDGRAKLARDDQIHILKQHRRKELETRQKQYRWMEWNPGFPLSIDAKCHKDLPRDIQFDSEKGVDFVLNYSKAMENLFINRFMHMFQSSWNDFADFEKIFVKISNTISERVMNHWQEDLMFGYQFLNGCNPVLIRRCTELPEKLPVTTEMVECSLERQLSLEQEVQQGNIFIVDFELLDGIDANKTDPCTLQFLAAPICLLYKNLANKIVPIAIQLNQIPGDENPIFLPSDAKYDWLLAKIWVRSSDFHVHQTITHLLRTHLVSEVFGIAMYRQLPAVHPIFKLLVAHVRFTIAINTKAREQLICECGLFDKANATGGGGHVQMVQRAMKDLTYASLCFPEAIKARGMESKEDIPYYFYRDDGLLVWEAIRTFTAEVVDIYYEGDQVVEEDPELQDFVNDVYVYGMRGRKSSGFPKSVKSREQLSEYLTVVIFTASAQHAAVNFGQYDWCSWIPNAPPTMRAPPPTAKGVVTIEQIVDTLPDRGRSCWHLGAVWALSQFQENELFLGMYPEEHFIEKPVKEAMARFRKNLEAIVSVIAERNKKKQLPYYYLSPDRIPNSVAI
